Source: article PMC11599839
Results are given in words; binding and its absence hold for the method and conditions named. Binding seen in cells or lysates may run through a third protein. Sequences can lack the tags named with a protein.

Biological target: T1, SNAP-GIPR (glucose-dependent insulinotropic polypeptide receptor with an N-terminal SNAP-tag), P48546
T1 chain: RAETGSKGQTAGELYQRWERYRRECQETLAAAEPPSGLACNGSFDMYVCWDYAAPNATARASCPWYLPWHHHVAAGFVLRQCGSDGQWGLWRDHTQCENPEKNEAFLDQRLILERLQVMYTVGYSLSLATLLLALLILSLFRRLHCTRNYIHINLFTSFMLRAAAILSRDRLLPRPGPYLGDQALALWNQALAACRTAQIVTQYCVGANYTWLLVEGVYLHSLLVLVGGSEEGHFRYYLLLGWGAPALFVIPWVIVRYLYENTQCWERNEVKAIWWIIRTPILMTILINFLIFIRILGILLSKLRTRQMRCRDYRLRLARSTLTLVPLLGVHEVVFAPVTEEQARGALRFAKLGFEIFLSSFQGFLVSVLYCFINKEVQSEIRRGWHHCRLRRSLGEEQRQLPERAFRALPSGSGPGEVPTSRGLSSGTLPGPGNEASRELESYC
Experiment: FRET or BRET; FRET by acceptor bleaching between Halo-GLP1R (CA-SS-SulfoCy3) and SNAP-GIPR (BG-SS-SulfoCy5) once internalized in co-expressing cells
Details: remark: other sources report otherwise

binding: no binding
B1: Halo-GLP1R (glucagon-like peptide-1 receptor with an N-terminal Halo-tag), P43220 24-463 (receptor)
chain: RPQGATVSLWETVQKWREYRRQCQRSLTEDPPPATDLFCNRTFDEYACWPDGEPGSFVNVSCPWYLPWASSVPQGHVYRFCTAEGLWLQKDNSSLPWRDLSECEESKRGERSSPEEQLLFLYIIYTVGYALSFSALVIASAILLGFRHLHCTRNYIHLNLFASFILRALSVFIKDAALKWMYSTAAQQHQWDGLLSYQDSLSCRLVFLLMQYCVAANYYWLLVEGVYLYTLLAFSVLSEQWIFRLYVSIGWGVPLLFVVPWGIVKYLYEDEGCWTRNSNMNYWLIIRLPILFAIGVNFLIFVRVICIVVSKLKANLMCKTDIKCRLAKSTLTLIPLLGTHEVIFAFVMDEHARGTLRFIKLFTELSFTSFQGLMVAILYCFVNNEVQLEFRKSWERWRLEHLHIQRDSSMKPLKCPTSSLSSGATAGSSMYTATCQASCS
modifications: here or on the partner: Halo-tag labelled with CA-SS-SulfoCy3; SNAP-tag labelled with BG-SS-SulfoCy5
